Some of these results come from one statement about several compounds together.
How the values were obtained:
Type in all cases: in vivo
Heliothis virescens = Heliothis virescens (Tobacco budworm) egg test on artificial diet; details: 200 ppm by pipetting, eggs (0-24 h old) on artificial diet, 4 days; egg mortality, larval mortality, growth regulation
Diabrotica balteata = Diabrotica balteata (Corn root worm) larvae test on artificial diet; details: 200 ppm (concentration in well 18 ppm) on artificial diet, L2 larvae, 5 days; larval mortality, growth regulation
Plutella xylostella = Plutella xylostella (Diamond back moth) larvae test on artificial diet; details: 18.2 ppm by pipetting on artificial diet, L2 larvae, 5 days; larval mortality, antifeedant, growth regulation
Spodoptera littoralis = Spodoptera littoralis (Egyptian cotton leafworm) cotton leaf disc spray test; details: 200 ppm sprayed on cotton leaf discs, 5 L1 larvae, 3 DAT; mortality, repellent effect, feeding behaviour, growth regulation
Aedes aegypti = Aedes aegypti (Yellow fever mosquito) larvae test; details: 2 ppm, L2 larvae in 96-well plates, 2 days; mortality and growth inhibition

O=C(c1ccnc(Cl)c1)N1CC2(CCN(C/C=C/c3ccc(C(F)(F)F)cc3)CC2)c2cc(F)cnc21 [CCCIII-29]
at least 80%: control of Heliothis virescens (Heliothis virescens) | control of Diabrotica balteata (Diabrotica balteata) | control of Plutella xylostella (Plutella xylostella)

O=C(c1ccnc(Cl)c1)N1CC2(CCN(C/C=C/c3ccc(OC(F)(F)F)cc3)CC2)c2cc(F)cnc21 [CCCIII-30]
at least 80%: control of Heliothis virescens (Heliothis virescens) | control of Diabrotica balteata (Diabrotica balteata)

O=C(c1cc(Cl)nc(Cl)c1)N1CC2(CCN(C/C=C/c3ccc(Cl)cc3)CC2)c2cc(F)cnc21 [CCCV-26]
at least 80%: control of Heliothis virescens (Heliothis virescens) | control of Spodoptera littoralis (Spodoptera littoralis) | control of Diabrotica balteata (Diabrotica balteata) | control of Plutella xylostella (Plutella xylostella)

O=C(c1cc(Cl)nc(Cl)c1)N1CC2(CCN(C/C=C/c3ccc(C(F)(F)F)cc3)CC2)c2cc(F)cnc21 [CCCV-29]
at least 80%: control of Heliothis virescens (Heliothis virescens) | control of Diabrotica balteata (Diabrotica balteata) | control of Plutella xylostella (Plutella xylostella)

O=C(c1cc(Cl)nc(Cl)c1)N1CC2(CCN(C/C=C/c3ccc(OC(F)(F)F)cc3)CC2)c2cc(F)cnc21 [CCCV-30]
at least 80%: control of Heliothis virescens (Heliothis virescens) | control of Diabrotica balteata (Diabrotica balteata) | control of Plutella xylostella (Plutella xylostella)

O=C(c1ccnc(Cl)c1)N1CC2(CCN(C/C=C/c3ccc(Cl)cc3)CC2)c2nc(Cl)ncc21 [CDIII-49]
at least 80%: control of Heliothis virescens (Heliothis virescens) | control of Aedes aegypti (Aedes aegypti) | control of Spodoptera littoralis (Spodoptera littoralis) | control of Diabrotica balteata (Diabrotica balteata) | control of Plutella xylostella (Plutella xylostella)

O=C(c1ccnc(Cl)c1)N1CC2(CCN(C/C=C/c3ccc(C(F)(F)F)cc3)CC2)c2nc(Cl)ncc21 [CDIII-52]
at least 80%: control of Heliothis virescens (Heliothis virescens) | control of Aedes aegypti (Aedes aegypti) | control of Spodoptera littoralis (Spodoptera littoralis) | control of Diabrotica balteata (Diabrotica balteata) | control of Plutella xylostella (Plutella xylostella)

O=C(c1ccnc(Cl)c1)N1CC2(CCN(C/C=C/c3ccc(OC(F)(F)F)cc3)CC2)c2nc(Cl)ncc21 [CDIII-53]
at least 80%: control of Heliothis virescens (Heliothis virescens) | control of Aedes aegypti (Aedes aegypti) | control of Spodoptera littoralis (Spodoptera littoralis) | control of Diabrotica balteata (Diabrotica balteata) | control of Plutella xylostella (Plutella xylostella)

O=C(c1cc(Cl)nc(Cl)c1)N1CC2(CCN(C/C=C/c3ccc(Cl)cc3)CC2)c2nc(Cl)ncc21 [CDV-49]
at least 80%: control of Heliothis virescens (Heliothis virescens) | control of Aedes aegypti (Aedes aegypti) | control of Spodoptera littoralis (Spodoptera littoralis) | control of Diabrotica balteata (Diabrotica balteata)

O=C(c1cc(Cl)nc(Cl)c1)N1CC2(CCN(C/C=C/c3ccc(C(F)(F)F)cc3)CC2)c2nc(Cl)ncc21 [CDV-52]
at least 80%: control of Heliothis virescens (Heliothis virescens) | control of Aedes aegypti (Aedes aegypti) | control of Spodoptera littoralis (Spodoptera littoralis) | control of Diabrotica balteata (Diabrotica balteata) | control of Plutella xylostella (Plutella xylostella)

O=C(c1ccnc(Cl)c1)N1CC2(CCN(C/C=C/c3ccc(C(F)(F)F)cc3)CC2)c2cnc(Cl)cc21 [CIII-52]
at least 80%: control of Heliothis virescens (Heliothis virescens) | control of Aedes aegypti (Aedes aegypti) | control of Diabrotica balteata (Diabrotica balteata) | control of Plutella xylostella (Plutella xylostella)

O=C(c1ccnc(Cl)c1)N1CC2(CCN(C/C=C/c3ccc(Cl)cc3)CC2)c2c1ccnc2Cl [CIII-210, 4-chloro-5-aza-1-(2-chloropyridin-4-yl)carbonyl-1′-[trans-3-(4-chlorophenyl)allyl] spiro[indoline-3,4′-piperidine]]
at least 80%: control of Heliothis virescens (Heliothis virescens) | control of Aedes aegypti (Aedes aegypti) | control of Spodoptera littoralis (Spodoptera littoralis) | control of Diabrotica balteata (Diabrotica balteata) | control of Plutella xylostella (Plutella xylostella)

O=C(c1ccnc(Cl)c1)N1CC2(CCN(C/C=C/c3ccc(OC(F)(F)F)cc3)CC2)c2c1ccnc2Cl [CIII-214]
at least 80%: control of Heliothis virescens (Heliothis virescens) | control of Aedes aegypti (Aedes aegypti) | control of Spodoptera littoralis (Spodoptera littoralis) | control of Diabrotica balteata (Diabrotica balteata) | control of Plutella xylostella (Plutella xylostella)

O=C(c1cc(Cl)nc(Cl)c1)N1CC2(CCN(C/C=C/c3ccc(Cl)cc3)CC2)c2nc(F)ccc21 [Compound V-26]
at least 80%: control of Heliothis virescens (Heliothis virescens) | control of Aedes aegypti (Aedes aegypti) | control of Spodoptera littoralis (Spodoptera littoralis) | control of Diabrotica balteata (Diabrotica balteata) | control of Plutella xylostella (Plutella xylostella)

O=C(c1cc(Cl)nc(Cl)c1)N1CC2(CCN(C/C=C/c3ccc(C(F)(F)F)cc3)CC2)c2nc(F)ccc21 [Compound V-29]
at least 80%: control of Heliothis virescens (Heliothis virescens) | control of Aedes aegypti (Aedes aegypti) | control of Spodoptera littoralis (Spodoptera littoralis) | control of Diabrotica balteata (Diabrotica balteata) | control of Plutella xylostella (Plutella xylostella)

O=C(c1cc(Cl)nc(Cl)c1)N1CC2(CCN(C/C=C/c3ccc(OC(F)(F)F)cc3)CC2)c2nc(F)ccc21 [Compound V-30]
at least 80%: control of Heliothis virescens (Heliothis virescens) | control of Aedes aegypti (Aedes aegypti) | control of Spodoptera littoralis (Spodoptera littoralis) | control of Diabrotica balteata (Diabrotica balteata) | control of Plutella xylostella (Plutella xylostella)

O=C(c1cc(Cl)nc(Cl)c1)N1CC2(CCN(C/C=C/c3ccc(Cl)cc3)CC2)c2ncc(Cl)cc21 [Compound V-210]
at least 80%: control of Heliothis virescens (Heliothis virescens) | control of Aedes aegypti (Aedes aegypti) | control of Spodoptera littoralis (Spodoptera littoralis) | control of Diabrotica balteata (Diabrotica balteata) | control of Plutella xylostella (Plutella xylostella)

O=C(c1cc(Cl)nc(Cl)c1)N1CC2(CCN(C/C=C/c3ccc(OC(F)(F)F)cc3)CC2)c2ncc(Cl)cc21 [Compound V-214]
at least 80%: control of Heliothis virescens (Heliothis virescens) | control of Aedes aegypti (Aedes aegypti) | control of Spodoptera littoralis (Spodoptera littoralis) | control of Diabrotica balteata (Diabrotica balteata) | control of Plutella xylostella (Plutella xylostella)

O=C(c1cc(Cl)nc(Cl)c1)N1CC2(CCN(C/C=C/c3ccc(C(F)(F)F)cc3)CC2)c2ncc(F)cc21 [Compound V-236]
at least 80%: control of Heliothis virescens (Heliothis virescens) | control of Aedes aegypti (Aedes aegypti) | control of Spodoptera littoralis (Spodoptera littoralis) | control of Diabrotica balteata (Diabrotica balteata) | control of Plutella xylostella (Plutella xylostella)

O=C(c1ccnc(Cl)c1)N1CC2(CCN(C/C=C/c3ccc(C(F)(F)F)cc3)CC2)c2sccc21 [DCIII-6]
at least 80%: control of Aedes aegypti (Aedes aegypti) | control of Diabrotica balteata (Diabrotica balteata)

O=C(c1ccnc(Cl)c1)N1CC2(CCN(C/C=C/c3ccc(OC(F)(F)F)cc3)CC2)c2sccc21 [DCIII-7]
at least 80%: control of Heliothis virescens (Heliothis virescens) | control of Diabrotica balteata (Diabrotica balteata)

O=C(c1cc(Cl)nc(Cl)c1)N1CC2(CCN(C/C=C/c3ccc(Cl)cc3)CC2)c2cncnc21 [DV-3]
at least 80%: control of Heliothis virescens (Heliothis virescens) | control of Spodoptera littoralis (Spodoptera littoralis) | control of Diabrotica balteata (Diabrotica balteata) | control of Plutella xylostella (Plutella xylostella)

O=C(c1ccnc(Cl)c1)N1CC2(CCN(C/C=C/c3ccc(C(F)(F)F)cc3)CC2)c2ncc(Cl)cc21 [III-213]
at least 80%: control of Heliothis virescens (Heliothis virescens) | control of Aedes aegypti (Aedes aegypti) | control of Diabrotica balteata (Diabrotica balteata) | control of Plutella xylostella (Plutella xylostella)

O=C(c1ccnc(F)c1)N1CC2(CCN(C/C=C/c3ccc(Cl)cc3)CC2)c2ncc(Cl)cc21 [VIII-210]
at least 80%: control of Heliothis virescens (Heliothis virescens) | control of Aedes aegypti (Aedes aegypti) | control of Spodoptera littoralis (Spodoptera littoralis) | control of Plutella xylostella (Plutella xylostella)

O=C(c1ccnc(F)c1)N1CC2(CCN(C/C=C/c3ccc(C(F)(F)F)cc3)CC2)c2ncc(Cl)cc21 [VIII-213]
at least 80%: control of Heliothis virescens (Heliothis virescens) | control of Aedes aegypti (Aedes aegypti) | control of Spodoptera littoralis (Spodoptera littoralis) | control of Plutella xylostella (Plutella xylostella)

O=C(NCc1cnc(Cl)s1)N1CC2(CCN(C/C=C/c3ccc(Cl)cc3)CC2)c2nc(F)ccc21 [XX-26]
at least 80%: control of Heliothis virescens (Heliothis virescens) | control of Aedes aegypti (Aedes aegypti) | control of Spodoptera littoralis (Spodoptera littoralis) | control of Plutella xylostella (Plutella xylostella)

O=C(NCc1cnc(Cl)s1)N1CC2(CCN(C/C=C/c3ccc(C(F)(F)F)cc3)CC2)c2nc(F)ccc21 [XX-29]
at least 80%: control of Heliothis virescens (Heliothis virescens) | control of Aedes aegypti (Aedes aegypti) | control of Spodoptera littoralis (Spodoptera littoralis) | control of Plutella xylostella (Plutella xylostella)

O=C(NCc1cnc(Cl)s1)N1CC2(CCN(C/C=C/c3ccc(Cl)cc3)CC2)c2ncc(Cl)cc21 [XX-210]
at least 80%: control of Heliothis virescens (Heliothis virescens) | control of Aedes aegypti (Aedes aegypti) | control of Spodoptera littoralis (Spodoptera littoralis) | control of Plutella xylostella (Plutella xylostella)

O=C(NCc1cnc(Cl)s1)N1CC2(CCN(C/C=C/c3ccc(OC(F)(F)F)cc3)CC2)c2ncc(Cl)cc21 [XX-214]
at least 80%: control of Heliothis virescens (Heliothis virescens) | control of Aedes aegypti (Aedes aegypti) | control of Spodoptera littoralis (Spodoptera littoralis) | control of Plutella xylostella (Plutella xylostella)

O=C(NCc1cnc(Cl)s1)N1CC2(CCN(C/C=C/c3ccc(Cl)cc3)CC2)c2ncc(F)cc21 [XX-233]
at least 80%: control of Heliothis virescens (Heliothis virescens) | control of Aedes aegypti (Aedes aegypti) | control of Spodoptera littoralis (Spodoptera littoralis) | control of Plutella xylostella (Plutella xylostella)

O=C(NCc1cnc(Cl)s1)N1CC2(CCN(C/C=C/c3ccc(C(F)(F)F)cc3)CC2)c2ncc(F)cc21 [XX-236]
at least 80%: control of Heliothis virescens (Heliothis virescens) | control of Aedes aegypti (Aedes aegypti) | control of Spodoptera littoralis (Spodoptera littoralis) | control of Plutella xylostella (Plutella xylostella)
